These are yes or no findings as the source states them, for the method shown. Some binding calls cover weakened binding; strength is not graded here. Blank lines part the entries; values can stand above or below the binder they belong to.
What was measured:
[1] = biological target: HOIP (residues 697–852) (UniProt Q96EP0); assay: SEC; each protein alone and the mixture at matched concentrations on Superdex 200 Increase 10/300 GL or Superdex 75 Increase 10/300 GL; a forward shift or increase of the peak read qualitatively; fractions on SDS-PAGE (Fig. 1c: 20 μM HOIP RING2-LDD, 30 μM STK4 KD, Superdex 75 Increase); both purified
[2] = biological target: HOIP (residues 854–1072) (UniProt Q96EP0); assay: AUC; sedimentation velocity, 42,000 rpm, 20 °C, c(s) distribution (SEDFIT); mixtures of HOIP RING2-LDD with STK4 KD at molar ratios 1:1 or 1:5; both purified
[3] = biological target: HOIP (residues 697–1072) (UniProt Q96EP0); assay: SEC; each protein alone and the mixture at matched concentrations on Superdex 200 Increase 10/300 GL or Superdex 75 Increase 10/300 GL; a forward shift or increase of the peak read qualitatively; fractions on SDS-PAGE (Fig. 1c: 20 μM HOIP RING2-LDD, 30 μM STK4 KD, Superdex 75 Increase); both purified

The chains behind the UniProt entries cited, without tags or fusion partners. Residues count along the entry.
HOIP (residues 697–1072) (Q96EP0, residues 697-1072): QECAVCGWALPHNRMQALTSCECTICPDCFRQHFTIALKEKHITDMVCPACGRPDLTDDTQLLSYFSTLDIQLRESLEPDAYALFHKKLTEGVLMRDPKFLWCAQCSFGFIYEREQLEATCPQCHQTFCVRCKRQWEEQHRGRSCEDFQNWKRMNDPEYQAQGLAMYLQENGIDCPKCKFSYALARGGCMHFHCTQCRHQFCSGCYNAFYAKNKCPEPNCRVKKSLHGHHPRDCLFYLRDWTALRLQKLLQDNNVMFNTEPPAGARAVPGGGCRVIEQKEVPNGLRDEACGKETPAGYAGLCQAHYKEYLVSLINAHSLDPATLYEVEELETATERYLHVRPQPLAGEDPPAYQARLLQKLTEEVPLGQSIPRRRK
HOIP (residues 697–852) (Q96EP0, residues 697-852): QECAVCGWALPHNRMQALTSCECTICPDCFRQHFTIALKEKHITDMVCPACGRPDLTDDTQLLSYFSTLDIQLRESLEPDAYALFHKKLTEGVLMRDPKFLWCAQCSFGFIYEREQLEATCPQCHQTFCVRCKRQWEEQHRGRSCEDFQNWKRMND
HOIP (residues 854–1072) (Q96EP0, residues 854-1072): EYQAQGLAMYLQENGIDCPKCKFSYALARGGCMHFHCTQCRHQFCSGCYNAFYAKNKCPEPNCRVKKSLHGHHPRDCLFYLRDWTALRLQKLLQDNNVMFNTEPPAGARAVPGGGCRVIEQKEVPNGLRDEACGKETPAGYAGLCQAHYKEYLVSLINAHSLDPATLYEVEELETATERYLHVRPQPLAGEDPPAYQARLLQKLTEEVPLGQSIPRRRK

- binding [1]: no binding
B1: STK4 (residues 1–326) K59R (domain or fragment, UniProt Q13043 1-326)
chain: METVQLRNPPRRQLKKLDEDSLTKQPEEVFDVLEKLGEGSYGSVYKAIHKETGQIVAIRQVPVESDLQEIIKEISIMQQCDSPHVVKYYGSYFKNTDLWIVMEYCGAGSVSDIIRLRNKTLTEDEIATILQSTLKGLEYLHFMRKIHRDIKAGNILLNTEGHAKLADFGVAGQLTDTMAKRNTVIGTPFWMAPEVIQEIGYNCVADIWSLGITAIEMAEGKPPYADIHPMRAIFMIPTNPPPTFRKPELWSDNFTDFVKQCLVKSPEQRATATQLLQHPFVRSAKGVSILRDLINEAMDVKLKRQESQQREVDQDDEENSEEDEMD

- binding [2]: binds weakly
B2: STK4 (residues 11–326) K59R (domain or fragment, UniProt Q13043 11-326)
chain: RRQLKKLDEDSLTKQPEEVFDVLEKLGEGSYGSVYKAIHKETGQIVAIRQVPVESDLQEIIKEISIMQQCDSPHVVKYYGSYFKNTDLWIVMEYCGAGSVSDIIRLRNKTLTEDEIATILQSTLKGLEYLHFMRKIHRDIKAGNILLNTEGHAKLADFGVAGQLTDTMAKRNTVIGTPFWMAPEVIQEIGYNCVADIWSLGITAIEMAEGKPPYADIHPMRAIFMIPTNPPPTFRKPELWSDNFTDFVKQCLVKSPEQRATATQLLQHPFVRSAKGVSILRDLINEAMDVKLKRQESQQREVDQDDEENSEEDEMD

- binding [3]: no binding
B3: STK4 SARAH domain (domain or fragment, UniProt Q13043 433-480)
chain: YEFLKSWTVEDLQKRLLALDPMMEQEIEEIRQKYQSKRQPILDAIEAK

— PMC12441119
